The results in this text go back to publication PMC7819943, “Rice protein-binding microarrays: a tool to detect cis-acting elements near promoter regions in rice”.

By UniProt entry, the sequences of proteins in these tests, tags left out.
UniProt Q0JBA9, entry or part of it: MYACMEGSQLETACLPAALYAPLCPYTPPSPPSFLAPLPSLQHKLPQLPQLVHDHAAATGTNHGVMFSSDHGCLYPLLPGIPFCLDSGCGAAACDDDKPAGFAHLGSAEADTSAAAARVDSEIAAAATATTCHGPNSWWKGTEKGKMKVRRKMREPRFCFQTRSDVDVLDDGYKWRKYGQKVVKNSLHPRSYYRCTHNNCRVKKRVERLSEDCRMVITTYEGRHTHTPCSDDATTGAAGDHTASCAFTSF

This is one part of the list.

For the test, the target named is OsWRKY34 (Oryza sativa, UniProt Q0JBA9 1-250). Briefly: protein-binding microarray (RPBM); PBS, 2% BSA, 51.3 ng/ul salmon testes DNA, 50 uM zinc acetate, 200 nM TF, 25 C, 1 h; high values mean tight binding. Particulars: protein: recombinant; tags: N-terminal polyhistidine and DsRed monomer fusion (pET32a); label: CyDye5-dUTP incorporated in the synthesized complementary strand; 3' TTTTT single-stranded linker to array surface; dsDNA, one strand shown. In outline:
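Transcription factors, each fused N-terminally to a polyhistidine tag and DsRed, were expressed in E. coli BL21-CodonPlus and purified on Ni–NTA. A custom Agilent array was made double-stranded by primer extension with Cy5-dUTP and blocked with 2% BSA. It was incubated with 200 nM protein in PBS, 2% BSA, salmon testes DNA and 50 µM zinc acetate at 25 °C for 1 h, then washed. The binding signal is per-feature fluorescence intensity (arbitrary units) read on an Axon 4000B scanner.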
Consider “GCCCATACCCCAATTCTCCCTACTACTTTGGGCTGAAACGCGGAGTCACCTAGTGCAG”, for which the binding signal was 8200 fluorescence intensity (a.u.). As for “TCTCCTCCGTCCGCCGCCTCCGCCGTCGCGCCGATCTCCCCGGAGTCACCTAGTGCAG”, the figure is 8500 fluorescence intensity (a.u.). As for “CTTTAAACGTTGGCCTCTTGTTAGTCGATGCAATCATCTTCGGAGTCACCTAGTGCAG”, the figure is 8100 fluorescence intensity (a.u.). Take “TTGGCGTTGTATATGTTACTGCTTCCGCCGTTCTAAAATACGGAGTCACCTAGTGCAG”: the binding signal was 8140 fluorescence intensity (a.u.). Consider “TCCAAGTCGCCCATCATGCATCCTACGGTCTGCACACCAACGGAGTCACCTAGTGCAG”, for which the binding signal was 9520 fluorescence intensity (a.u.). As for “TCCCATCTCTCTTGTCAAGTCGTCAGCCAGCCAGCCTGCCCGGAGTCACCTAGTGCAG”, the figure is 13400 fluorescence intensity (a.u.); as for “GAGTGTGGAGGATTGAGGAATTGGGGTTTAGTTTTTATATCGGAGTCACCTAGTGCAG”, 13000 fluorescence intensity (a.u.); as for “CAATATGTGTTTATAGCTGGCTTACATTATGCTATTGTACCGGAGTCACCTAGTGCAG”, 8490 fluorescence intensity (a.u.). Take “ATCTAGCTCAATTGGCTAATTACGTGCCCAACTCAACTGCCGGAGTCACCTAGTGCAG”: the binding signal is 9550 fluorescence intensity (a.u.).

Turning to “GCTAGGATGGTTTGGGATTGTGTGGGTTATGTTGTCTTTGCGGAGTCACCTAGTGCAG”, the binding signal was 9050 fluorescence intensity (a.u.). The value for “AACGATTCGCCATCATTTTAAATGTTTTTATCGTCTATTTCGGAGTCACCTAGTGCAG” was 10900 fluorescence intensity (a.u.); that for “CCATTTATGTCGTCGCGCCCCGCCCCGCCCGCGCGCTGAGCGGAGTCACCTAGTGCAG” was 10200 fluorescence intensity (a.u.); that for “TATAATCGTGTGTTTCGTTTTCCGTGTCAGGAGGCAAGGTCGGAGTCACCTAGTGCAG” was 8200 fluorescence intensity (a.u.).

For the sequence “GAGCCACCACCGACAACATTAATCTGGCTAAGCTCAATGACGGAGTCACCTAGTGCAG”, the binding signal was 10300 fluorescence intensity (a.u.). As for “GTGCATGTTCGTCTATCGTGTAACTTTTTTGTTTTTCAATCGGAGTCACCTAGTGCAG”, the figure is 8800 fluorescence intensity (a.u.); as for “ACTGTTATTATTTTTTCAATGTTTTTCATGTCTGTTTGTCCGGAGTCACCTAGTGCAG”, 10900 fluorescence intensity (a.u.); as for “TCATTTGATGTAATAGTCCCCGTTGTTTATCTTTTCTAATCGGAGTCACCTAGTGCAG”, 9720 fluorescence intensity (a.u.).

As for “CGTCCTCGGCACCAAACTCCTGCTACCTCGATGTCTTGATCGGAGTCACCTAGTGCAG”, the binding signal was 12100 fluorescence intensity (a.u.). As for “GCTCGGCCCAGCCCACTACAAGCCCAATTCAATTGCATTCCGGAGTCACCTAGTGCAG”, the figure is 8510 fluorescence intensity (a.u.); as for “AAACCATTCCAGAAGTTACTTGAAGTTTGACATTTCATCCCGGAGTCACCTAGTGCAG”, 8140 fluorescence intensity (a.u.); as for “TTGCTGACTTTCAATTCATTTTTACGATTTTACATCTATACGGAGTCACCTAGTGCAG”, 9390 fluorescence intensity (a.u.). The value for “GGACATGACACCCTGCTTGCTACTGCTATACACATGTTCTCGGAGTCACCTAGTGCAG” was 9110 fluorescence intensity (a.u.); that for “CATGACAAATGTCCTCATCCATACGCACACTATGATTTTACGGAGTCACCTAGTGCAG” was 9330 fluorescence intensity (a.u.).

For the sequence “TTATTATTTTTGTGTGTGAAACTGACATGTGGGTCCCACTCGGAGTCACCTAGTGCAG”, the binding signal is 10000 fluorescence intensity (a.u.). As for “TCCGAGGTGCACAGTGTCCTTCCTGTTGGTGTGATAGTTCCGGAGTCACCTAGTGCAG”, the figure is 8210 fluorescence intensity (a.u.); as for “TGCCTGGTCATATTTCCATAGCGACATACTGTACACATTTCGGAGTCACCTAGTGCAG”, 10500 fluorescence intensity (a.u.); as for “CGTTGTTCTGCTTCTCCATGGCCTCCACCTGCATCTGCAACGGAGTCACCTAGTGCAG”, 9920 fluorescence intensity (a.u.).

With “CCGTGTGGTGGTGGTCTGGCTGATTTTTTTTTGTTTTATTCGGAGTCACCTAGTGCAG”, the binding signal was 10500 fluorescence intensity (a.u.). Regarding “CTGCGTTGACCGGCCGAAGAGAAAAATTGCTGGTCTATGACGGAGTCACCTAGTGCAG”, the binding signal was 14400 fluorescence intensity (a.u.). The value for “TACCCTCGAGATTTTGCTGTGTTCCCTCCCATGTCCTTACCGGAGTCACCTAGTGCAG” was 9610 fluorescence intensity (a.u.); that for “CACCATTGATTTTTCTTCTTGTTTTCTCCGACTCTGAGAACGGAGTCACCTAGTGCAG” was 8100 fluorescence intensity (a.u.). The value for “CTCCTCCGTCTCGCGCCCGCCGCCGCCGCCACCGCCACCGCGGAGTCACCTAGTGCAG” was 11400 fluorescence intensity (a.u.).

Take “CCAAAGGGGCAAGCCTATACACTATTTACCTGAACTTTGCCGGAGTCACCTAGTGCAG”: the binding signal was 8390 fluorescence intensity (a.u.). The value for “CGTCACAATTGTCCCGTATTATCTCATACTTCATCAGTGACGGAGTCACCTAGTGCAG” was 9840 fluorescence intensity (a.u.); that for “TATATATATATATATATATTGTTGAACGGTTTGTGCTCTGCGGAGTCACCTAGTGCAG” was 10900 fluorescence intensity (a.u.).

Take “GACCACAATTAATTACCACTGCTAAGCTCCATCCTCCATGCGGAGTCACCTAGTGCAG”: the binding signal is 8440 fluorescence intensity (a.u.). The value for “GTGCTAAAAAGTCAACGGTGTCAAATATTTAGAAATGAAGCGGAGTCACCTAGTGCAG” was 21200 fluorescence intensity (a.u.); that for “ACTTCCATCGTGATCTTTTTACCATTATTTGGAGCATTTCCGGAGTCACCTAGTGCAG” was 11000 fluorescence intensity (a.u.); that for “GGCATATGACCGGTACTACGACAACCATCACCTCTCGCCGCGGAGTCACCTAGTGCAG” was 8160 fluorescence intensity (a.u.). As for “TCATGGGCGGGTTGAGCAATGTTTCTTGTGATTAGTCTCACGGAGTCACCTAGTGCAG”, the figure is 16300 fluorescence intensity (a.u.); as for “TAATGGATTTGTTTGGTCATCTACATGGGAGGGTGGCTCACGGAGTCACCTAGTGCAG”, 8200 fluorescence intensity (a.u.).

With “GCTGACTGACTGACTGACTCCTGACCGCCTTTAACTTTTACGGAGTCACCTAGTGCAG”, the binding signal was 14700 fluorescence intensity (a.u.).
